Measured values published in PubChem BioAssay AID248 (DTP/NCI, 2004).
The list does not hold the whole screen: it gathers tests that were run many times, whatever their T/C, doses with no T/C, and many T/C values between a quarter and a half above the control. Further doses and runs are listed elsewhere. T/C is the treated group as % of the vehicle group. Some doses have a count of surviving animals in place of a T/C: the source files T/C as zero there, which appears to mark a toxic dose or a test without result, not a measured value. Some survivor counts are full or nearly so, which does not show that the dose was tolerated: survival well below the control is almost never listed, so the zero probably covers shortened survival too. Counts of survivors are from the toxicity check (mostly the fifth day) where no day follows; animals may have died later. Schedule codes are those of the source, read here as Q, the interval in days (D) or hours (H), X, the number of doses. Some entries hold several experiments; the results are listed from low to high. Some schedules carry Z or #; the key to these is not given. Where survival is the endpoint, this PubChem deposit counts one and a half times the control or more as active, and values a quarter to a half above the control carry no call in these data; other NCI protocols may use other cut-offs. Some T/C values carry the count of animals alive at the toxicity check (mostly the fifth day); without a count, all were alive then.

Tested on: L1210 leukemia ip in BDF1 mice, survival T/C
Test: NCI In Vivo Anticancer Drug Screen. Data for tumor model L1210 Leukemia (intraperitoneal) in B6D2F1 (BDF1) mice
Details: T/C endpoint: mean survival time, higher T/C = longer survival
[1] = dose: 400.0 mg/kg/injection, schedule: Q01DX001 (ip), vehicle: Klucel (hydroxypropylcellulose) (HPC)
[2] = dose: 400.0 mg/kg/injection, schedule: Q01DX001 (ip), vehicle: saline
[3] = dose: 40.0 mg/kg/injection, schedule: Q01DX001 (ip), vehicle: saline
[4] = dose: 80.0 mg/kg/injection, schedule: Q01DX001 (ip), vehicle: saline
[5] = dose: 400.0 mg/kg/injection, schedule: Q04DX003 (ip), vehicle: saline
[6] = dose: 100.0 mg/kg/injection, schedule: Q01DX001 (ip), vehicle: saline
[7] = dose: 200.0 mg/kg/injection, schedule: Q01DX001 (ip), vehicle: saline
[8] = dose: 200.0 mg/kg/injection, schedule: Q01DX009 (ip), vehicle: Klucel (hydroxypropylcellulose) (HPC)
[9] = dose: 400.0 mg/kg/injection, schedule: Q01DX009 (ip), vehicle: Klucel (hydroxypropylcellulose) (HPC)
[10] = dose: 4.0 mg/kg/injection, schedule: Q01DX Z (ip), vehicle: saline

For `O=C(CCN1CC1)Nc1cccc(NC(=O)CCN2CC2)c1`, the T/C (dose: 5.0 mg/kg/injection, schedule: Q01DX001 (ip), vehicle: Klucel (hydroxypropylcellulose) (HPC)) was 128 % of control, the T/C (dose: 10.0 mg/kg/injection, schedule: Q01DX001 (ip), vehicle: Klucel (hydroxypropylcellulose) (HPC)) was 147 % of control and the T/C (dose: 20.0 mg/kg/injection, schedule: Q01DX001 (ip), vehicle: Klucel (hydroxypropylcellulose) (HPC)) was 141 % of control. For the same compound, the survivor count (dose: 80.0 mg/kg/injection, schedule: Q01DX001 (ip), vehicle: Klucel (hydroxypropylcellulose) (HPC)) was 5 of 6.
For `O=C1CCC(c2ccccc2)(C2CCN(Cc3ccc(F)cc3)CC2)C(=O)N1` (centres undefined), the survivor count (dose: 100.0 mg/kg/injection, schedule: Q01DX009 (ip), vehicle: other) was 0 of 6, the survivor count (dose: 200.0 mg/kg/injection, schedule: Q01DX009 (ip), vehicle: other) was 0 of 6 and the survivor count (dose: 400.0 mg/kg/injection, schedule: Q01DX009 (ip), vehicle: other) was 0 of 6.
For `C=CC[N+](CC=C)(CC=C)CCC[N+](CC=C)(CC=C)CC=C`, the survivor count (dose: 100.0 mg/kg/injection, schedule: Q01DX009 (ip), vehicle: water) was 0 of 6, the survivor count (dose: 100.0 mg/kg/injection, schedule: Q04DX003 (ip), vehicle: water) was 2 of 6 and the survivor count (dose: 200.0 mg/kg/injection, schedule: Q04DX003 (ip), vehicle: water) was 0 of 6. For the same compound, the survivor count (dose: 400.0 mg/kg/injection, schedule: Q04DX003 (ip), vehicle: water) was 0 of 6.
In the case of `CC1=C(Br)C(=O)C(c2c(C)cc(C)c(Br)c2C)=C(Br)C1=O`, the survivor count [1] is reported as 6 of 6.
For `c1nc(NCC2CC2)c2[nH]cnc2n1`, the survivor count [2] was 0 of 6.
With `C/C(=N\NC(N)=S)C1OCCc2ccccc21` (centres undefined) the survivor count [3] was 1 of 6 and the survivor count [4] was 0 of 6.
For `O=c1[nH]cnc2nccnc12`, the survivor count [5] was 1 of 6 and the survivor count (dose: 600.0 mg/kg/injection, schedule: Q04DX003 (ip), vehicle: saline) was 1 of 6.
`c1ccc2c(c1)ccc1ccc3cccc[n+]3c12` was tested, and the survivor count (dose: 50.0 mg/kg/injection, schedule: Q01DX001 (ip), vehicle: saline) was 0 of 6, the survivor count [6] was 0 of 6 and the survivor count [7] was 0 of 6. For the same compound, the survivor count [2] was 0 of 6.
With `CCCCNc1ncnc2c1ncn2C1OC(CO)C(O)C1O` (centres undefined) the T/C (dose: 100.0 mg/kg/injection, schedule: Q01DX005 (ip), vehicle: saline) was 125 % of control [3 of 4 alive] and the survivor count (dose: 200.0 mg/kg/injection, schedule: Q01DX005 (ip), vehicle: saline) was 0 of 4.
In the case of `CN=C(N)c1ccc(NC(=O)/C=C\c2ccc(/C=C/C(=O)Nc3ccc(C(N)=NC)cc3)cc2)cc1`, the T/C (dose: 30.0 mg/kg/injection, schedule: Q01DX Z (ip), vehicle: saline) is reported as 126 % of control and the T/C (dose: 60.0 mg/kg/injection, schedule: Q01DX Z (ip), vehicle: saline) is reported as 147 % of control.
`CCN(CC)CCNc1ccccc1Cl` was tested, and the survivor count [2] was 0 of 4.
For `CCCC[CH2][Sn](=[O])[CH2]CCCC`, the survivor count (dose: 100.0 mg/kg/injection, schedule: Q04DX003 (ip), vehicle: saline) was 4 of 6, the survivor count (dose: 200.0 mg/kg/injection, schedule: Q04DX003 (ip), vehicle: saline) was 0 of 6 and the survivor count [5] was 0 of 6.
`C[C@]12CC[C@H](O)C[C@H]1CC[C@@H]1[C@@H]2CC[C@]2(C)[C@@H](C3=CC(=O)OC3)CC[C@]12O` was tested, and the survivor count (dose: 100.0 mg/kg/injection, schedule: Q01DX001 (ip), vehicle: carboxymethylcellulose (CMC)) was 1 of 6, the survivor count (dose: 200.0 mg/kg/injection, schedule: Q01DX001 (ip), vehicle: carboxymethylcellulose (CMC)) was 1 of 6 and the survivor count (dose: 400.0 mg/kg/injection, schedule: Q01DX001 (ip), vehicle: carboxymethylcellulose (CMC)) was 1 of 6.
With `Clc1nc2ccccc2nc1C(Cl)Cl` the survivor count [1] was 3 of 6.
In the case of `Nc1ncnc2nc(I)[nH]c12`, the survivor count [2] is reported as 0 of 4.
`NNS(=O)(=O)c1ccc([N+](=O)[O-])cc1` was tested, and the survivor count (dose: 100.0 mg/kg/injection, schedule: Q01DX009 (ip), vehicle: Klucel (hydroxypropylcellulose) (HPC)) was 0 of 6, the survivor count [8] was 0 of 6 and the survivor count [9] was 0 of 6.
In the case of `Cc1ccc(S(=O)(=O)C2CCCCC2SC#N)cc1` (centres undefined), the survivor count (dose: 100.0 mg/kg/injection, schedule: Q01DX009 (ip), vehicle: saline with Tween-80) is reported as 3 of 6, the survivor count (dose: 200.0 mg/kg/injection, schedule: Q01DX009 (ip), vehicle: saline with Tween-80) is reported as 2 of 6 and the survivor count (dose: 400.0 mg/kg/injection, schedule: Q01DX009 (ip), vehicle: saline with Tween-80) is reported as 0 of 6.
For `[CH3][Sn]1([CH3])[CH2]CCC[CH2]1`, the survivor count (dose: 100.0 mg/kg/injection, schedule: Q01DX009 (ip), vehicle: saline) was 0 of 3, the survivor count (dose: 200.0 mg/kg/injection, schedule: Q01DX009 (ip), vehicle: saline) was 0 of 3 and the survivor count (dose: 400.0 mg/kg/injection, schedule: Q01DX009 (ip), vehicle: saline) was 0 of 3.
With `O=COC1CC2CC1C1CCCC21` (centres undefined) the survivor count (dose: 400.0 mg/kg/injection, schedule: Q04DX003 (ip), vehicle: saline with Tween-80) was 5 of 6.
For `O=P(N1CCCCC1)(N1CC1)N1CC1`, the T/C (dose: 1.0 mg/kg/injection, schedule: Q01DX Z (ip), vehicle: saline) was 149 % of control, the T/C [10] was 147 % of control and the survivor count [10] was 5 of 6. The T/C (dose: 9.0 mg/kg/injection, schedule: Q01DX Z (ip), vehicle: saline) was 143 % of control, the T/C (dose: 14.0 mg/kg/injection, schedule: Q01DX Z (ip), vehicle: saline) was 145 % of control and the T/C (dose: 15.0 mg/kg/injection, schedule: Q01DX015 (ip), vehicle: saline) was 148 % of control. For the same compound, the T/C (dose: 20.0 mg/kg/injection, schedule: Q01DX001 (ip), vehicle: saline) was 129 % of control, the survivor count (dose: 30.0 mg/kg/injection, schedule: Q01DX011 (ip), vehicle: saline) was 5 of 6 and the survivor count (dose: 32.0 mg/kg/injection, schedule: Q01DX Z (ip), vehicle: saline) was 4 of 6. For the same compound, the survivor count [3] was 2 of 4, the survivor count [4] was 2 of 4 and 3 of 4 and the survivor count [6] was 5 of 6. The survivor count [7] was 6 of 6 and the survivor count [2] was 0 of 6.
In the case of `O=S1(=O)C=CCCC=C1`, the survivor count (dose: 25.0 mg/kg/injection, schedule: Q04DX002 (ip), vehicle: Klucel (hydroxypropylcellulose) (HPC)) is reported as 3 of 3, the survivor count (dose: 150.0 mg/kg/injection, schedule: Q04DX002 (ip), vehicle: Klucel (hydroxypropylcellulose) (HPC)) is reported as 0 of 3 and the survivor count (dose: 300.0 mg/kg/injection, schedule: Q04DX002 (ip), vehicle: Klucel (hydroxypropylcellulose) (HPC)) is reported as 0 of 3.
For `Clc1cccc(Cl)c1C[N+]12CN3CN(CN(C3)C1)C2`, the survivor count (dose: 240.0 mg/kg/injection, schedule: Q01DX015 (ip), vehicle: saline) was 1 of 6.
In the case of `N#Cc1c(C#N)c(N)n(N)c1N`, the survivor count (dose: 100.0 mg/kg/injection, schedule: Q04DX002 (ip), vehicle: Klucel (hydroxypropylcellulose) (HPC)) is reported as 1 of 3 and the survivor count (dose: 400.0 mg/kg/injection, schedule: Q04DX002 (ip), vehicle: Klucel (hydroxypropylcellulose) (HPC)) is reported as 2 of 3.
For `O=P(O)(O)CCC(F)(F)C(F)(F)C(F)(F)C(F)(F)C(F)(F)C(F)(F)C(F)(F)F`, the survivor count (dose: 150.0 mg/kg/injection, schedule: Q01DX001 (ip), vehicle: saline) was 3 of 6 and the survivor count (dose: 300.0 mg/kg/injection, schedule: Q01DX001 (ip), vehicle: saline) was 0 of 6.
With `O=C(Nc1cccc(F)c1)Nc1nccs1` the survivor count [8] was 1 of 6 and the survivor count [9] was 0 of 6.
In the case of `COc1ccc2nc3cc(Cl)ccc3c(NCCCCN(C)C)c2c1`, the survivor count (dose: 25.0 mg/kg/injection, schedule: Q04DX003 (ip), vehicle: saline) is reported as 1 of 6, the survivor count [6] is reported as 2 of 6 and the survivor count [7] is reported as 0 of 6. For the same compound, the survivor count [2] was 0 of 6.
In the case of `CCC(C#N)(CCN(CC=C(C)C)CC=C(C)C)c1cccc2ccccc12` (centres undefined), the survivor count (dose: 200.0 mg/kg/injection, schedule: Q04DX003 (ip), vehicle: Klucel (hydroxypropylcellulose) (HPC)) is reported as 0 of 6 and the survivor count (dose: 400.0 mg/kg/injection, schedule: Q04DX003 (ip), vehicle: Klucel (hydroxypropylcellulose) (HPC)) is reported as 0 of 6.
